Laboratory results: PubChem BioAssay AID1347076 (National Center for Advancing Translational Sciences (NCATS), 2019)
Out of some 400,000 compounds screened, about 13,000 (3.2%) were called active. The inconclusive results got no clear call from the source; some entries with a clear call stand among them for comparison. The call rests on the fitted dose curve; in most records, active means well fitted cell-killing curve with a large enough effect; inconclusive means small, poorly fitted or top-dose-only effect, or effect the other way; inactive means flat fitted curve, though single readings scatter. A potency beside an inconclusive call is a rough fit, not a confirmed value.

Test: qHTS assay for MDR1-selective chemotherapeutics: Primary screen using the drug-selected MDR subline cells KB-V1; further: nearly all actives have a fitted effect of over 60% in size
Conditions: KB-V1 MDR cells viability, CellTiter-Glo, 72 h; activity change, negative = cytotoxicity: at 46.1 µM (top of the series)
Summary of the method: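 Compound-treated KB-V1 multidrug-resistant cells, 72 h, 37 degrees C; viability by CellTiter-Glo. Fitted qHTS curves give the values.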
On the % scale 0 is the no-effect control and ±100 the full control effect; potency means the concentration at half of the fitted maximal effect.

SMILES | Potency | activity change, negative = cytotoxicity
COc1ccc(-c2cc(NC=O)c3ncc(-c4cnn(C)c4)n3c2)cc1 | active: 18.4 µM | 
COc1ccc(C2c3c(ncn(Cc4ccco4)c3=N)Oc3ccc4ccccc4c32)cc1 (configuration not stated) | inconclusive: 16.4 µM [cytotoxic, single point] | 
O=C(CNC(=O)c1cccs1)Nc1ccc2c(c1)OCCO2 |  | inactive: 12.6%
NC(COCc1ccccc1)c1csc(Nc2nncc3ccccc23)n1 (configuration not stated) | inconclusive: 29.1 µM [cytotoxic, single point] | 
CC(=O)Oc1ccc(C(=O)Nc2ccccc2C(=O)NCC(C)C)cc1 | inconclusive: 13 µM [cytotoxic, partial curve, poor fit] | 
Cc1cccc(-n2cnc3cc(C(=O)NCc4ccccc4Cl)ccc32)c1 | inconclusive: 23.1 µM [cytotoxic, single point] | 
CNS(=O)(=O)c1cccc(C(=O)OCc2csc(-c3ccccc3)n2)c1 | inconclusive: 29.1 µM [cytotoxic, single point] | 
COC(=O)c1cc2sccc2n1CC(=O)Nc1cc(OC)cc(OC)c1 | inconclusive: 23.1 µM [cytotoxic, single point] | 
O=C(NCc1ccccc1)c1cc[n+](Cc2ccccc2)cc1 | inconclusive: 0.013 µM [rising, full curve] | 
Cc1cccc(-n2c(C)cc(C(=O)C(=O)Nc3nncs3)c2C)c1 | inconclusive: 29.1 µM [rising, single point] | 
O=C(c1cc(F)ccc1F)C1CCCN(C(=O)c2ccco2)C1 (configuration not stated) | inconclusive: 32.6 µM [cytotoxic, partial curve, poor fit] | 
C#CC(C)(CC)NC(=O)c1cc2nc(C3CC3)cc(C(F)(F)F)n2n1 (configuration not stated) |  | inactive: -4.39%
C#CCOCCOCCOCCNc1nc(N2CCN(C(=O)[C@H](CC(N)=O)n3cc([C@@H](N)CC(N)=O)nn3)CC2)nc(N2CCN(C(=O)[C@H](CC(N)=O)n3cc([C@@H](N)CC(N)=O)nn3)CC2)n1 | inconclusive: 1.84 µM [cytotoxic, full curve, poor fit] | 
CCCCCCCN1C=CC(=O)CC1 | inconclusive: 29.1 µM [rising, single point] | 
CCOC(=O)c1noc2ncn(CC(=O)Nc3ccc(F)cc3Cl)c(=O)c12 |  | inactive: 0.451%
O=C(Nc1ncccn1)C1c2ccccc2Oc2ccccc21 | inconclusive: 23.1 µM [cytotoxic, single point] | 
CN(C)CCSc1nc(-c2ccccc2)nc2c1COC(C)(C)C2 | active: 10.3 µM | 
CCCCn1nc(C(=O)N(C)CC(=O)Nc2cccc(F)c2)c2ccccc2c1=O | inconclusive: 5.8 µM [cytotoxic, partial curve] | 
CCN(CC)S(=O)(=O)c1cccc(C(=O)c2c(C)cc3ccccn23)c1 | inconclusive: 20.6 µM [cytotoxic, single point] | 
Cc1cccc(OCCn2cc(/C=N/NC(=O)c3ccncc3)c3ccccc32)c1 | inconclusive: 29.1 µM [cytotoxic, single point] | 
COc1ccc2c(c1)c1ncn(Cc3ccco3)c(=O)c1n2C | inconclusive: 18.4 µM [cytotoxic, partial curve] | 

Two of these compounds, reformatted:
SMILES	Potency	activity change, negative = cytotoxicity
C#CC(C)(CC)NC(=O)c1cc2nc(C3CC3)cc(C(F)(F)F)n2n1 (configuration not stated)		inactive: -4.39%
C#CCOCCOCCOCCNc1nc(N2CCN(C(=O)[C@H](CC(N)=O)n3cc([C@@H](N)CC(N)=O)nn3)CC2)nc(N2CCN(C(=O)[C@H](CC(N)=O)n3cc([C@@H](N)CC(N)=O)nn3)CC2)n1	inconclusive: 1.84 µM [cytotoxic, full curve, poor fit]	

Carrying on.

SMILES | Potency | activity change, negative = cytotoxicity
O=C(CNC1CCCCCC1)Nc1ccccc1N1CCCCC1 | inconclusive: 13 µM [cytotoxic, partial curve, poor fit] | 
O=C(NC(=S)Nc1ccccc1N1CCOCC1)c1ccc([N+](=O)[O-])cc1 | inconclusive: 16.4 µM [cytotoxic, partial curve, poor fit] | 
CC1=C(C(=O)OCc2ccc(C)cc2)C(c2ccccc2C(F)(F)F)CC(=O)N1 (configuration not stated) | inconclusive: 32.6 µM [cytotoxic, single point] | 
O=C(c1cccc(COCC(F)(F)C(F)F)c1)N1CCN(c2ccccc2)CC1 | active: 14.6 µM | 
Cc1cc(C)n(C(=O)CCCCCCCC(=O)n2nc(C)cc2C)n1 |  | inactive: -5.61%
COc1ccc(CNC(=O)CN(Cc2ccc(F)cc2)C(=O)c2csnn2)cc1 | inconclusive: 14.6 µM [cytotoxic, single point] | 
COc1ccc(Nc2ncnc3c2cnn3Cc2ccccc2)cc1 | inconclusive: 14.6 µM [cytotoxic, partial curve, poor fit] | 
CC1CCC2(CC1)NC(=O)N(CC(=O)N1CCN(C(=O)c3cccs3)CC1)C2=O (configuration not stated) | inconclusive: 18.4 µM [cytotoxic, single point] | 
CCc1ccc(-c2nn(-c3ccccc3C)cc2C(=O)N2CCN(C3CCS(=O)(=O)C3)CC2)cc1 (configuration not stated) | active: 14.6 µM | 
O=C1c2ccccc2C(=O)C1C(=O)C1CC1 | inconclusive: 23.1 µM [cytotoxic, single point] | 
CC(=O)C1=CCC(c2ccccc2Cl)N(S(=O)(=O)c2ccc(C)cc2)C1 (configuration not stated) | inconclusive: 4.11 µM [cytotoxic, full curve] | 
CCOC(=O)c1sc2ncn(CC(=O)Nc3ccc(F)cc3F)c(=O)c2c1C |  | inactive: -3.62%
O=C(O)CC(c1ccc(Cl)cc1)n1cccc1 (configuration not stated) | inconclusive: 29.1 µM [rising, single point] | 
CCCC1CCC(C(=O)Nn2c(C)nc3ccccc3c2=O)CC1 (configuration not stated) |  | inconclusive: -101%
C#C[C@]1(O)CC[C@H]2[C@@H]3CCC4=CC(=O)CC[C@@H]4[C@H]3CC[C@@]21C | active: 2.31 µM | 
Cc1ccccc1NC(=O)/C=C/c1ccc([N+](=O)[O-])s1 | inconclusive: 2.06 µM [cytotoxic, partial curve, poor fit] | 
Cc1ccc(CCNC(=O)c2nnn(-c3cc(C)cc(C)c3)c2N)cc1 |  | inactive: -7.57%
Cn1c(-c2cccc(Br)c2)cnc1NCc1ccccc1O |  | inactive: -1.34%
COc1ccc(N(CC(=O)NCCSc2ccccn2)S(=O)(=O)c2ccccc2)cc1OC | inconclusive: 7.31 µM [cytotoxic, partial curve] | 
Cc1ccc(Sc2ccc(C(=O)N(C)C)cc2[N+](=O)[O-])cc1 | inconclusive: 16.4 µM [cytotoxic, partial curve, poor fit] | 
O=C(O)c1ccc(S(=O)(=O)NCc2ccc3c(c2)OCO3)cc1 | inconclusive: 23.1 µM [cytotoxic, single point] | 
